In patent US20220395553A1, “CXCR4 ANTAGONIST PEPTIDES” (COHBAR, INC., priority 2019, published 2022):
At least one compound was matched to its structure with a doubt left. Peptide text beside a SMILES is read from it.

Protein sequences, listed by entry. Tags and fused reporters are not part of them.
UniProt P61073, whole entry: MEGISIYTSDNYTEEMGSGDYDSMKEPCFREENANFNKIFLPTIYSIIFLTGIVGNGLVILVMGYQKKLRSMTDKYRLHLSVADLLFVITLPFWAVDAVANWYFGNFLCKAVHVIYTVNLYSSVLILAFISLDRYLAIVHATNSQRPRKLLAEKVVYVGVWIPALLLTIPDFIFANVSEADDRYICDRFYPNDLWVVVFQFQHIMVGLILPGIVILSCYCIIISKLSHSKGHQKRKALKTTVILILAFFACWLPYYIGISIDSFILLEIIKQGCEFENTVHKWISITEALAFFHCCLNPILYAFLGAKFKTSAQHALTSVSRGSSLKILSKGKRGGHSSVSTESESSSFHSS

Molecular target: human CXCR4 (Homo sapiens, UniProt P61073)
Experiment: IC50 for inhibition of CXCR4 activation, β-Arrestin recruitment (Example 22)
Type: cell-based
Parameters: host or cells: C2C12 (mouse myoblast) CXCR4 β-Arrestin PathHunter cell line
Conditions: read-out: IC50 for Inhibition of CXCR4 Activation, 7 nM CXCL12 (EC80), stock in H2O, range 1 μM-0.05 nM
Procedure: The assay was run with the DiscoverX protocol. β-Arrestin recruitment assays were performed by Eurofins-DiscoverX (Fremont, Calif.) using C2C12 CXCR4 β-Arrestin cell line (co-expressing ProLink tagged human CXCR4 and Enzyme Acceptor tagged β-Arrestin) and PathHunter detection kit. Peptides were initially prepared as 1 mM stock in H2O and tested in ten (10)-step concentration response curves using 3-fold dilution steps with 1 μM as highest concentration; a concentration range of 1 μM-0.05 nM was tested. C2C12 CXCR4 β-Arrestin cells were seed onto 384-well plates in standard medium. […] At the end of the 90 min incubation period, β-Arrestin recruitment in response to various treatments was quantified using a chemiluminescent complementation reporter assay to measure association of tagged human […] (ProLink tag) and tagged β-Arrestin (Enzyme Acceptor tag).

SMILES: CC(C)C[C@H](NC(=O)[C@H](CO)NC(=O)[C@H](CO)NC(=O)[C@H](CCCNC(=N)N)NC(=O)[C@@H](NC(=O)[C@H](CO)NC(=O)[C@@H](N)Cc1c[nH]cn1)C(C)C)C(=O)N[C@@H](CCCNC(=N)N)C(=O)N1CCC[C@H]1C(=O)N[C@@H](Cc1ccc(O)cc1)C(=O)N[C@H](C(=O)N[C@@H](CCCCN)C(=O)O)[C@@H](C)O [compound 14] (H-HSVRSSLRPYTK-OH)
- IC50: > 1 µM
